Reference: patent US20250034210A1, “DLL3 TARGETING PEPTIDES AND CONSTRUCTS THEREOF” (MARIANA ONCOLOGY INC., priority 2023, published 2025)
For at least one compound, name, drawing or mass did not settle the structure. Some compounds share one range, which may span the group rather than tell each member. *1 amine or outer side, *2 acyl side, *3 side chain or, on linkers, in order; H or OH if unused. Where a SMILES comes first, the peptide text is derived from it. Bridges are numbered along the chain shown (N, C = ends). [ ]: non-standard residue; d: D form. The star is where a group is joined. DOTA = O=C(O)CN1CCN(CC(=O)O)CCN(CC(=O)*)CCN(CC(=O)O)CC1; d(γGlu) = O=C(O)[C@@H](CCC(=O)[*:2])N[*:1]; PEG8 = NCCOCCOCCOCCOCCOCCOCCOCCOCCC(=O)O; X1 = O=C(C[C@H]1CC[C@H](N[*:1])CC1)[*:2]; γGlu = O=C(O)[C@H](CCC(=O)[*:2])N[*:1]

Target: T1, human DLL3 (Homo sapiens, UniProt Q9NYJ7)
T1 construct: biotin (biotinylated)
T1 sequence (Q9NYJ7 27-618): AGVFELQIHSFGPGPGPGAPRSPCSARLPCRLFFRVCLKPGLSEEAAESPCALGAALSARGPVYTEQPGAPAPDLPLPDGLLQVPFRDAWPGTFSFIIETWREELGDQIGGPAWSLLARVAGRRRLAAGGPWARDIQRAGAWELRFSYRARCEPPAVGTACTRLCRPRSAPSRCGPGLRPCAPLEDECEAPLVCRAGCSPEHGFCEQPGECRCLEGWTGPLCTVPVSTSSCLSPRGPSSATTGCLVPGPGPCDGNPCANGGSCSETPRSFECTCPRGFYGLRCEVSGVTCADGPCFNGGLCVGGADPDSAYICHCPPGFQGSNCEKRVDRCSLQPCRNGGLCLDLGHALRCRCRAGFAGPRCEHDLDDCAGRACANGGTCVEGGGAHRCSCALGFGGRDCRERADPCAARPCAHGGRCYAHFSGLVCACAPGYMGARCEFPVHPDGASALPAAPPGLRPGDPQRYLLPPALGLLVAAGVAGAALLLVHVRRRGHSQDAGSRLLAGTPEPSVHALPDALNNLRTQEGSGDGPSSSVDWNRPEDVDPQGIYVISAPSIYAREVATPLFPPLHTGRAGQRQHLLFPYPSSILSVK
Experiment: Affinity determination by Surface Plasmon Resonance (SPR), biotinylated human DLL3 immobilized on streptavidin sensor chip
Settings: 25° C., Biacore, 1:1 binding model
Description: Affinity Determination by Surface Plasmon Resonance (SPR). SPR studies were performed on the compounds disclosed herein using the following protocol.
The binding affinity and binding kinetic parameters at 25° C. were determined using Biacore S200 or biacore 8K instrument. Biotinylated target ligand human DLL3 was immobilized on a streptavidin sensor chip. A reference surface was set up for nonspecific binding and refractive index changes. For analysis of the kinetics of interactions, varying concentrations of samples were injected at a flow rate of 100 μL/min using running buffer containing 20 mM phosphate buffer with 2.7 mM KCl, 137 mM NaCl, 0.05% Surfactant P20 and 2% DMSO. Sensorgram curves were fitted with 1:1 binding model, and affinity and kinetic parameters were obtained using Biacore Insight evaluation 4.0. software.

Question: `CC[C@H](C)[C@H](NC(=O)[C@@H](NC(=O)[C@H](Cc1c[nH]c2ccccc12)NC(=O)[C@H]1CCCN1C(=O)CCOCCOCCOCCOCCOCCOCCOCCOCCNC(=O)CN1CCN(CC(=O)O)CCN(CC(=O)O)CCN(CC(=O)O)CC1)[C@@H](C)O)C(=O)N[C@H]1CSSC[C@@H](C(=O)N[C@@H](Cc2c[nH]c3ccccc23)C(=O)N2CCC[C@H]2C(=O)O)NC(=O)[C@H](CC(=O)O)NC(=O)[C@H](Cc2c[nH]cn2)NC(=O)[C@H](Cc2c[nH]c3ccccc23)NC(=O)[C@H](CC(N)=O)NC(=O)[C@H](CC(N)=O)NC1=O` [compound 79, DOTA-PEG8-(dPro)-W-T-I-C(3)-N-N-W-H-D-C(3)-W-P-CONH2] ({DOTA-PEG8}-[dP]WTICNNWHDCWP-OH; disulfide 5-11; C-terminus assumed) was tested. Which Kd did it give?
Answer: Its Kd is 10 to 100 nM.

Question: `CC[C@H](C)[C@H](NC(=O)[C@@H](NC(=O)[C@H](Cc1c[nH]c2ccccc12)NC(=O)CC[C@@H](NC(=O)CCOCCOCCOCCOCCOCCOCCOCCOCCNC(=O)CN1CCN(CC(=O)O)CCN(CC(=O)O)CCN(CC(=O)O)CC1)C(=O)O)[C@@H](C)O)C(=O)N[C@H]1CSSC[C@@H](C(=O)N[C@@H](Cc2c[nH]c3ccccc23)C(=O)N2CCC[C@H]2C(=O)O)NC(=O)[C@H](CC(=O)O)NC(=O)[C@H](Cc2c[nH]cn2)NC(=O)[C@H](Cc2c[nH]c3ccccc23)NC(=O)[C@H](CC(N)=O)NC(=O)[C@H](CC(N)=O)NC1=O` [compound 222, DOTA-PEG8-(D-gE)-W-T-I-C(3)-N-N-W-H-D-C(3)-W-P-CONH2] ({DOTA-PEG8-d(γGlu)}-WTICNNWHDCWP-OH; disulfide 4-10; C-terminus assumed) was tested. Which Kd did it give?
Answer: Its Kd is 10 to 100 nM.

Question: With `CC[C@H](C)[C@H](NC(=O)[C@@H](NC(=O)[C@H](Cc1c[nH]c2ccccc12)NC(=O)CC[C@H](NC(=O)CN1CCN(CC(=O)O)CCN(CC(=O)O)CCN(CC(=O)O)CC1)C(=O)O)[C@@H](C)O)C(=O)N[C@H]1CSSC[C@@H](C(=O)N[C@@H](Cc2c[nH]c3ccccc23)C(=O)N2CCC[C@H]2C(N)=O)NC(=O)[C@H](CC(=O)O)NC(=O)[C@H](Cc2c[nH]cn2)NC(=O)[C@H](Cc2c[nH]c3ccccc23)NC(=O)[C@H](CC(N)=O)NC(=O)[C@H](CC(N)=O)NC1=O` [compound 81, DOTA-(gE)-W-T-I-C(3)-N-N-W-H-D-C(3)-W-P-CONH2] ({DOTA-γGlu}-WTICNNWHDCWP-NH2; disulfide 4-10; N-terminus and C-terminus assumed) as the compound, how does the Kd read?
Answer: The Kd was 10 to 100 nM.

Question: Which Kd does the source give for `CC[C@H](C)[C@H](NC(=O)[C@@H](NC(=O)[C@H](Cc1c[nH]c2ccccc12)NC(=O)CC[C@H](NC(=O)CCOCCOCCOCCOCCOCCOCCOCCOCCNC(=O)CN1CCN(CC(=O)O)CCN(CC(=O)O)CCN(CC(=O)O)CC1)C(=O)O)[C@@H](C)O)C(=O)N[C@H]1CSSC[C@@H](C(=O)N[C@@H](Cc2c[nH]c3ccccc23)C(=O)N2CCC[C@H]2C(=O)O)NC(=O)[C@H](CC(=O)O)NC(=O)[C@H](Cc2c[nH]cn2)NC(=O)[C@H](Cc2c[nH]c3ccccc23)NC(=O)[C@H](CC(N)=O)NC(=O)[C@H](CC(N)=O)NC1=O` [compound 83, DOTA-PEG8-(gE)-W-T-I-C(3)-N-N-W-H-D-C(3)-W-P-CONH2] ({DOTA-PEG8-γGlu}-WTICNNWHDCWP-OH; disulfide 4-10; C-terminus assumed) here?
Answer: Its Kd is 10 to 100 nM.

Question: `CC[C@H](C)[C@H](NC(=O)[C@@H](NC(=O)[C@H](Cc1c[nH]c2ccccc12)NC(=O)C[C@H]1CC[C@H](NC(=O)CCOCCOCCOCCOCCOCCOCCOCCOCCNC(=O)CN2CCN(CC(=O)O)CCN(CC(=O)O)CCN(CC(=O)O)CC2)CC1)[C@@H](C)O)C(=O)N[C@H]1CSSC[C@@H](C(=O)N[C@@H](Cc2c[nH]c3ccccc23)C(=O)N2CCC[C@H]2C(=O)O)NC(=O)[C@H](CC(=O)O)NC(=O)[C@H](Cc2c[nH]cn2)NC(=O)[C@H](Cc2c[nH]c3ccccc23)NC(=O)[C@H](CC(N)=O)NC(=O)[C@H](CC(N)=O)NC1=O` [compound 78, DOTA-PEG8-CyHex-W-T-I-C(3)-N-N-W-H-D-C(3)-W-P-CONH2] ({DOTA-PEG8}-[X1]WTICNNWHDCWP-OH; disulfide 5-11; C-terminus assumed) was tested. Which Kd did it give?
Answer: Its Kd is 10 to 100 nM.

Question: `CC[C@H](C)[C@H](NC(=O)[C@@H](NC(=O)[C@H](Cc1c[nH]c2ccccc12)NC(=O)CC[C@H](NC(=O)CC[C@H](NC(=O)CC[C@H](NC(=O)CCOCCOCCOCCOCCOCCOCCOCCOCCNC(=O)CN1CCN(CC(=O)O)CCN(CC(=O)O)CCN(CC(=O)O)CC1)C(=O)O)C(=O)O)C(=O)O)[C@@H](C)O)C(=O)N[C@H]1CSSC[C@@H](C(=O)N[C@@H](Cc2c[nH]c3ccccc23)C(=O)N2CCC[C@H]2C(=O)O)NC(=O)[C@H](CC(=O)O)NC(=O)[C@H](Cc2c[nH]cn2)NC(=O)[C@H](Cc2c[nH]c3ccccc23)NC(=O)[C@H](CC(N)=O)NC(=O)[C@H](CC(N)=O)NC1=O` [compound 84, DOTA-PEG8-(gE)3-W-T-I-C(3)-N-N-W-H-D-C(3)-W-P-CONH2] ({DOTA-PEG8-γGlu-γGlu-γGlu}-WTICNNWHDCWP-OH; disulfide 4-10; C-terminus assumed) was tested. Which Kd did it give?
Answer: Its Kd is 10 to 100 nM.

Question: Which Kd does the source give for `CC[C@H](C)[C@H](NC(=O)[C@@H](NC(=O)[C@H](Cc1c[nH]c2ccccc12)NC(=O)[C@H]1CCCN1C(=O)[C@H]1CCCN1C(=O)[C@H]1CCCN1C(=O)CCOCCOCCOCCOCCOCCOCCOCCOCCNC(=O)CN1CCN(CC(=O)O)CCN(CC(=O)O)CCN(CC(=O)O)CC1)[C@@H](C)O)C(=O)N[C@H]1CSSC[C@@H](C(=O)N[C@@H](Cc2c[nH]c3ccccc23)C(=O)N2CCC[C@H]2C(=O)O)NC(=O)[C@H](CC(=O)O)NC(=O)[C@H](Cc2c[nH]cn2)NC(=O)[C@H](Cc2c[nH]c3ccccc23)NC(=O)[C@H](CC(N)=O)NC(=O)[C@H](CC(N)=O)NC1=O` [compound 80, DOTA-PEG8-(dPro)3-W-T-I-C(3)-N-N-W-H-D-C(3)-W-P-CONH2] ({DOTA-PEG8}-[dP][dP][dP]WTICNNWHDCWP-OH; disulfide 7-13; C-terminus assumed) here?
Answer: Its Kd is 10 to 100 nM.

Question: For `CC[C@H](C)[C@H](NC(=O)[C@@H](NC(=O)[C@H](Cc1c[nH]c2ccccc12)NC(=O)CC[C@H](NC(=O)CC[C@H](NC(=O)CC[C@H](NC(=O)CN1CCN(CC(=O)O)CCN(CC(=O)O)CCN(CC(=O)O)CC1)C(=O)O)C(=O)O)C(=O)O)[C@@H](C)O)C(=O)N[C@H]1CSSC[C@@H](C(=O)N[C@@H](Cc2c[nH]c3ccccc23)C(=O)N2CCC[C@H]2C(N)=O)NC(=O)[C@H](CC(=O)O)NC(=O)[C@H](Cc2c[nH]cn2)NC(=O)[C@H](Cc2c[nH]c3ccccc23)NC(=O)[C@H](CC(N)=O)NC(=O)[C@H](CC(N)=O)NC1=O` [compound 82, DOTA-(gE)3-W-T-I-C(3)-N-N-W-H-D-C(3)-W-P-CONH2] ({DOTA-γGlu-γGlu-γGlu}-WTICNNWHDCWP-NH2; disulfide 4-10), which Kd is on record?
Answer: Its Kd is 10 to 100 nM.

Question: How did the Kd turn out when `CC[C@H](C)[C@H](NC(=O)[C@@H](NC(=O)[C@H](Cc1c[nH]c2ccccc12)NC(=O)CC[C@@H](NC(=O)CC[C@@H](NC(=O)CC[C@@H](NC(=O)CCOCCOCCOCCOCCOCCOCCOCCOCCNC(=O)CN1CCN(CC(=O)O)CCN(CC(=O)O)CCN(CC(=O)O)CC1)C(=O)O)C(=O)O)C(=O)O)[C@@H](C)O)C(=O)N[C@H]1CSSC[C@@H](C(=O)N[C@@H](Cc2c[nH]c3ccccc23)C(=O)N2CCC[C@H]2C(=O)O)NC(=O)[C@H](CC(=O)O)NC(=O)[C@H](Cc2c[nH]cn2)NC(=O)[C@H](Cc2c[nH]c3ccccc23)NC(=O)[C@H](CC(N)=O)NC(=O)[C@H](CC(N)=O)NC1=O` [compound 223, DOTA-PEG8-(D-gE)3-W-T-I-C(3)-N-N-W-H-D-C(3)-W-P-CONH2] ({DOTA-PEG8-d(γGlu)-d(γGlu)-d(γGlu)}-WTICNNWHDCWP-OH; disulfide 4-10; C-terminus assumed) was run?
Answer: The Kd was 10 to 100 nM.
